This test has as its target CD79 (UniProt P11912). The experiment in a line: antigen binding kinetics, Table 3.

By UniProt entry, the sequences of proteins in these tests, tags left out. Where a name states a change or a piece, a line headed by the entry shows the natural chain unless it says otherwise.
UniProt P11912: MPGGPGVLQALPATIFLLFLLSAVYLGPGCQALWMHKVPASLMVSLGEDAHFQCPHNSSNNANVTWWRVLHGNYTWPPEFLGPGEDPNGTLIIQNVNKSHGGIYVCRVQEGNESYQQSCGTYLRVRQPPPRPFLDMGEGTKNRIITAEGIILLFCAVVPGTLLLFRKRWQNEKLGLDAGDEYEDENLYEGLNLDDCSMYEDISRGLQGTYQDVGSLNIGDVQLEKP

No constants are given. Whether binding was seen depends on the method and setting. Some results given as binding are weak or reduced against the parent protein; the word gives no strength.

B1: engineered antibody LB630/519 (antibody, V domains shown)
VH: QVQLVQSGAEVKKPGASVKVSCKASGYAFSYSWMNWVRQAPGQGLEWMGRIYPESGDTNYNGKFKGRVTMTRDTSISTAYMELSRLRSDDTAVYYCARWVYGLPHFDYWGQGTLVTVSS
VL: DVVMTQSPLSLPVTLGQPASISCKSSQSLLDSDGKTYLNWLQQRPGQSPRRLIYLVSKLDSGVPDRFSGSGSGTDFTLKISRVEAEDVGVYYCWQGTHLPFTFGGGTKVEIK
Take B1: the binding result is on record as “binds”.

The record behind these values is patent publication US20200109198A1.
